# Measured values as given in US6623740B1 (Ludwig Institute for Cancer Research, priority 1997, dated 2003).
# HELM strings list residues between dots; [ac] is acetyl, [am] amide, other brackets name non-standard units.
# Assay: general procedure: Fmoc solid-phase peptide synthesis
# Conditions: whole synthesis
substance,measurement,value
PEPTIDE1{E.A.D.P.T.G.H.S.Y}$$$$V2.0,final purity (method not given),greater than 98%
